For some assays here: Results from cells or extracts need not show a direct contact. For some assays here: No signal at the amounts used counts as a negative. For some assays here: The exact form of at least one protein or probe is not confirmed.
Columns and labels:
[1] = target: TREM2 (triggering receptor expressed on myeloid cells 2), co-expressed with human DAP12 on CHO cells (Homo sapiens) (UniProt Q9NZC2); assay: flow cytometry; conditions: all dT (printed P) are NapdU, protein on the cell surface, single-stranded DNA
[2] = target: TREM2 (triggering receptor expressed on myeloid cells 2), co-expressed with human DAP12 on CHO cells (Homo sapiens) (UniProt Q9NZC2); assay: activity in cells; conditions: all dT (printed P) are NapdU, protein on the cell surface, single-stranded DNA, dose not given here
[3] = tested on: IgG1 (Homo sapiens); assay: binding assay; conditions: all dT (printed P) are NapdU; specificity control, group statement, data not shown; purified recombinant protein; label: biotin (cell binding assay); single-stranded DNA
[4] = target: TREM2 on primary M2a macrophages (Homo sapiens) (UniProt Q9NZC2); assay: activity in cells; conditions: all dT (printed P) are NapdU; stabilized cell surface TREM2 on primary human M2a macrophages, 37 C 3 h; protein on the cell surface; single-stranded DNA; dose not given here
[5] = CHO-hTREM2/hDAP12 cells, medium with 10% FBS, on ice, label: biotin (cell binding assay)

By UniProt entry, the sequences of proteins in these tests, tags left out. Residues count along the entry.
UniProt Q9NZC2, 19-230: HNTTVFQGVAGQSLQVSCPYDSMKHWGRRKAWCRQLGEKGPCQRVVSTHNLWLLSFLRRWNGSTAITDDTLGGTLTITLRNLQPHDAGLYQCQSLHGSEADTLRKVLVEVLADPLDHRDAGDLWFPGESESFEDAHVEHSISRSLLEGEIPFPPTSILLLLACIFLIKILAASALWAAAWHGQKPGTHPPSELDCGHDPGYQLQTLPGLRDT

Sequence | binding result ([1]; control SOMAmer did not bind cell surface human TREM2) | binding result [1, 5] | functional effect of the aptamer ([2]; increased/stabilized cell surface TREM2 on CHO-hTREM2, 37 C 3 h) | binding result [3] | functional effect of the aptamer [4] | functional effect of the aptamer ([2]; stabilized cell surface TREM2 on CHO-hTREM2, 37 C 3 h)
CCCTCCCTATCGCAATGACACATTGGGGTCTCGAGGTGCGCGATCGAAGA [EX83-95HC (control)] | no binding | – | – | – | – | –
CCCTCGATCCGGTGGCGGATCCTAAGTATTGGCCCGGTCCGCCAAGAAGA [UX85-90BC (also printed UX95-90BC)] | – | binds | active | no binding | – | –
CCCTCTGTCAACCTCCACACAGGCCTTTGATGCAAGTATACAGTGGAAGA [KX86-94WC] | – | binds | – | no binding | active | active

From US20240166742A1, “MOLECULES THAT BIND TO AND STABILIZE TRIGGERING RECEPTOR EXPRESSED ON MYELOID CELLS 2 (TREM2)” (Novartis AG, priority 2015, published 2024)
